Laboratory results taken from patent publication US5021551A, “Method of enhancing peptide immunogenicity” (Washington University, priority 1989, dated 1991).
At least one peptide structure holds a part that was inferred or is arguable (an end, a ring closure or a residue). Peptide text beside a SMILES is read from it.

Assays:
[1] = system: 3A9 T cell hybridoma (HEL(52-61) specific); assay: T cell stimulation assay (IL-2 release, CTLL bioassay), 3A9 hybridoma; format: cell-based; conditions: qualitative comparison
Protocol: (§1) The level of T cell stimulation was determined as previously described in detail by Allen and Unanue, J. Immunol. 132, 1077 (1984). In general, the level of T cell stimulation was determined by quantitating the amount of IL-2 produced by the T cell hybridomas. IL-2 was bioassayed by determining the level of ^3 H-Thymidine incorporation of the IL-2 dependent cell line, CTLL, 24 hours after culture in the test culture media. The source of antigen presenting cells were either peptone elicited peritoneal macrophages from CBA/J mice previously infected with Listeria monocytogenes or the B cell hybridoma, TA3 [Allen and Unanue, Id.; Allen et al, Proc. Natl. Acad. Sci. USA 81, 2489 (1984)]. Both sources of antigen presenting cells were fixed with paraformaldehyde prior to exposure to antigen.
(§2) The relative stimulatory capacity of derivatives of HEL (52-61) are shown. The relative stimulatory capacity of a peptide was determined by the relative shift in the concentration of antigen required for a 50% maximal response. For example, 300 fold less ^- 52-61^+. was required for a 50% maximal response than 52-61 with 3A9 T cells. The stimulation of 3A9 and 2All, two HEL (46-61) specific T cells, was determined as described in Materials and Methods. This test was performed three times, with identical results. A representative test is shown.

[2] = system: 2A11 T cell hybridoma (HEL(52-61) specific); assay: T cell stimulation assay (IL-2 release, CTLL bioassay), 2A11 hybridoma; format: cell-based; conditions: qualitative comparison
Protocol: as §1, §2

[3] = system: CBA/J mice; assay: In vivo priming ability: immunization, popliteal lymph node cell proliferation assay after 7 days

In the case of `CC[C@H](C)[C@H](NC(=O)CNC(=O)[C@H](Cc1ccc(O)cc1)NC(=O)[C@H](CC(=O)O)NC(=O)[C@@H](N)[C@@H](C)O)C(=O)N[C@@H](CC(C)C)C(=O)N[C@@H](CCC(N)=O)C(=O)N[C@H](C(=O)N[C@@H](CC(N)=O)C(=O)N[C@@H](CO)C(=O)N[C@@H](CCCNC(=N)N)C(=O)O)[C@@H](C)CC` [Peptide 51-61, reference compound] (H-TDYGILQINSR-OH), the “stimulatory ability, 3A9 T cell (in words)” value [1] was “more stimulatory than HEL (46-61)”, the “stimulatory ability, 2A11 T cell (in words)” value [2] was “more stimulatory than HEL (46-61)” and the “priming dose at which a good response was observed” value [3] was 1000 pmol. For the same compound, the “priming dose at which a slight response was observed” value [3] was 100 pmol.
